Reference: publication PMC7744550, “Structurally distinct telomere-binding proteins in Ustilago maydis execute non-overlapping functions in telomere replication, recombination, and protection”
For some of these results: No signal at the amounts used counts as a negative. For some of these results: At least one verdict was read from the data and is not stated in words by the source. Tags and fusion partners may be left off the protein sequences shown. For some of these results: Weaker means in comparison with the reference protein, sequence or condition of that experiment. For some of these results: Construct, isoform or probe ends are uncertain for at least one entry.

What was measured:
[1] = target: T1, Tay1-FG (Ustilago maydis) (UniProt A0A0D1CTG7); assay: competition with a labelled probe; settings: unlabeled competitor, 25 mM HEPES-KOH pH 7.5, 5% glycerol, 3 mM MgCl2, 0.1 mM EDTA, 1 mM DTT, 0.5 µg/µl BSA, 1-10 nM 32P probe, 22 °C 15 min, 6% native PAGE in 0.2x TBE, recombinant protein, protein details: C-terminal FLAG (His-SUMO cleaved by ULP1)
T1 sequence (looked up, limits assumed): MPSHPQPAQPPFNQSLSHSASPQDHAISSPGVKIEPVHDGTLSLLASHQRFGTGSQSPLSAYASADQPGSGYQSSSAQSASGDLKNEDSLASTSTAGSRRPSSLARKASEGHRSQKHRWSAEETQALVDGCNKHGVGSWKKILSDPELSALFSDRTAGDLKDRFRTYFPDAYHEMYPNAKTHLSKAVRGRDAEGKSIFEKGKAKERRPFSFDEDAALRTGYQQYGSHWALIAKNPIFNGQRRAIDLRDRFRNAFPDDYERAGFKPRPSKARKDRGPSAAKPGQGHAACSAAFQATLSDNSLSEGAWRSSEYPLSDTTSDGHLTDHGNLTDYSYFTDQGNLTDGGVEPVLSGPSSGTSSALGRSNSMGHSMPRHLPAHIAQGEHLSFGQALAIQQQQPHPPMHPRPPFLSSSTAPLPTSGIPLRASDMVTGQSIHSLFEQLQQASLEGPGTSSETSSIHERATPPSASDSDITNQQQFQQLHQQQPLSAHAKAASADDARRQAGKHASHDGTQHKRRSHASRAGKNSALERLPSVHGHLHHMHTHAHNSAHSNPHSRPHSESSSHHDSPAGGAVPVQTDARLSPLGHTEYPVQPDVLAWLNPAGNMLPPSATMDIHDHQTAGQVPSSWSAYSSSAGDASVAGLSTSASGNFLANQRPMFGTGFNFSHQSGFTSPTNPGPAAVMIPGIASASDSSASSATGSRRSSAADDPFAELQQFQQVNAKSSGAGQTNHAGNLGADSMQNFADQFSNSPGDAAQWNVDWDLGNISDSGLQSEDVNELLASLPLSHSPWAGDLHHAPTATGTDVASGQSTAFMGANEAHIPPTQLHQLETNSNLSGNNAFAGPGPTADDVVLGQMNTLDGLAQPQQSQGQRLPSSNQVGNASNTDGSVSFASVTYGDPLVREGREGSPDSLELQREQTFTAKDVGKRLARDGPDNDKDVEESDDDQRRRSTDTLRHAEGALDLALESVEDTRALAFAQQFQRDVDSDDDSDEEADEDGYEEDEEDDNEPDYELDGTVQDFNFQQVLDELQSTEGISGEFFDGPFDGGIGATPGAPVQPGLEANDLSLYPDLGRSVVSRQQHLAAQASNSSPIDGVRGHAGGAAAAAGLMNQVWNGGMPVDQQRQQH

[2] = target: T2, Trf2∆N-FG3 (Ustilago maydis) (UniProt A0A0D1E1Z3); assay: competition with a labelled probe; settings: unlabeled competitor, 25 mM HEPES-KOH pH 7.5, 5% glycerol, 3 mM MgCl2, 0.1 mM EDTA, 1 mM DTT, 0.5 µg/µl BSA, 1-10 nM 32P probe, 22 °C 15 min, 6% native PAGE in 0.2x TBE, recombinant protein, residues 416-1528, protein details: C-terminal FG3 (His-SUMO cleaved by ULP1)
T2 sequence (looked up): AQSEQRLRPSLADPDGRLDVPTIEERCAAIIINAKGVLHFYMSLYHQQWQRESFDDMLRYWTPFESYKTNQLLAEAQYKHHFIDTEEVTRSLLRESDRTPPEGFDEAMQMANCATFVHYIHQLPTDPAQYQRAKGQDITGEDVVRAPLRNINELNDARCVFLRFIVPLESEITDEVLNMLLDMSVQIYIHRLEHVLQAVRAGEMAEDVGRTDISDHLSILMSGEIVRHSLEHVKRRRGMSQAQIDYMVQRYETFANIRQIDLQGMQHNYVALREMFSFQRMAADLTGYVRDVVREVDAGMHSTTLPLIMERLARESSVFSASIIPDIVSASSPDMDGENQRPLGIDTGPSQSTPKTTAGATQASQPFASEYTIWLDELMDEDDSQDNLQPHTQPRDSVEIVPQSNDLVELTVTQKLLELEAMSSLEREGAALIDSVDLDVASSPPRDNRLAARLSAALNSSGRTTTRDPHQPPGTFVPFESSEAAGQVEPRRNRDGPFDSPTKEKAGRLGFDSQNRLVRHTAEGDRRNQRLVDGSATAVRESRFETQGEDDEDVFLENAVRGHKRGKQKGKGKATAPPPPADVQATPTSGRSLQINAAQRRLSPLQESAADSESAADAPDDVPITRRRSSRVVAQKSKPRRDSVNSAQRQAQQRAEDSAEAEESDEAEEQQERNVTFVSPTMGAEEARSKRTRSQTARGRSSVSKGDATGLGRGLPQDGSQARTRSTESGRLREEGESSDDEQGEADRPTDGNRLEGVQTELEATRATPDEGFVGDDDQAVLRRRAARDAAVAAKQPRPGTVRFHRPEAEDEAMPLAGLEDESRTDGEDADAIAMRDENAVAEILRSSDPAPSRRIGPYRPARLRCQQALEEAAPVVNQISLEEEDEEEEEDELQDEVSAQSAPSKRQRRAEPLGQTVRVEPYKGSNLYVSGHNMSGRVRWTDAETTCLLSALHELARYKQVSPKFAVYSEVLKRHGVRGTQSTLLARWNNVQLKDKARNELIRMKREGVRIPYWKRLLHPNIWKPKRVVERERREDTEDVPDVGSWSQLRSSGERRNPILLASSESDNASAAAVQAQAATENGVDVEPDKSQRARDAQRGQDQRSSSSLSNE

[3] = target: T1, Tay1-FG (Ustilago maydis); assay: EMSA; settings: 5 nM probe; 25 mM HEPES-KOH pH 7.5, 5% glycerol, 3 mM MgCl2, 0.1 mM EDTA, 1 mM DTT, 0.5 µg/µl BSA, 1-10 nM 32P probe, 22 °C 15 min; 6% native PAGE in 0.2x TBE; recombinant protein; protein details: C-terminal FLAG (His-SUMO cleaved by ULP1); label: 32P
[4] = target: T2, Trf2∆N-FG3 (Ustilago maydis); assay: EMSA; settings: 25 mM HEPES-KOH pH 7.5, 5% glycerol, 3 mM MgCl2, 0.1 mM EDTA, 1 mM DTT, 0.5 µg/µl BSA, 1-10 nM 32P probe, 22 °C 15 min; 6% native PAGE in 0.2x TBE; recombinant protein; residues 416-1528; protein details: C-terminal FG3 (His-SUMO cleaved by ULP1); label: 32P
[5] = target: T3, Trf2-Myb(1350-1528) (Ustilago maydis) (UniProt A0A0D1E1Z3); assay: EMSA; settings: 25 mM HEPES-KOH pH 7.5, 5% glycerol, 3 mM MgCl2, 0.1 mM EDTA, 1 mM DTT, 0.5 µg/µl BSA, 1-10 nM 32P probe, 22 °C 15 min; 6% native PAGE in 0.2x TBE; recombinant protein; residues 1350-1528; protein details: C-terminal FLAG (His-SUMO cleaved by ULP1); label: 32P (as probe)
T3 sequence (looked up): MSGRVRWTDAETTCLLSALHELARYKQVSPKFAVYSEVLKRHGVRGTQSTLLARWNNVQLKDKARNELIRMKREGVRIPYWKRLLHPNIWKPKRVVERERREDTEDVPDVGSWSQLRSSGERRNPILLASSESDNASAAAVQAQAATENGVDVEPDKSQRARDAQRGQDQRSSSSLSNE

[6] = target: T4, Trf2-TRFH(416-1349) (Ustilago maydis) (UniProt A0A0D1E1Z3); assay: EMSA; settings: 25 mM HEPES-KOH pH 7.5, 5% glycerol, 3 mM MgCl2, 0.1 mM EDTA, 1 mM DTT, 0.5 µg/µl BSA, 1-10 nM 32P probe, 22 °C 15 min; 6% native PAGE in 0.2x TBE; recombinant protein; residues 416-1349; protein details: C-terminal FLAG (His-SUMO cleaved by ULP1); label: 32P (as probe)
T4 sequence (looked up): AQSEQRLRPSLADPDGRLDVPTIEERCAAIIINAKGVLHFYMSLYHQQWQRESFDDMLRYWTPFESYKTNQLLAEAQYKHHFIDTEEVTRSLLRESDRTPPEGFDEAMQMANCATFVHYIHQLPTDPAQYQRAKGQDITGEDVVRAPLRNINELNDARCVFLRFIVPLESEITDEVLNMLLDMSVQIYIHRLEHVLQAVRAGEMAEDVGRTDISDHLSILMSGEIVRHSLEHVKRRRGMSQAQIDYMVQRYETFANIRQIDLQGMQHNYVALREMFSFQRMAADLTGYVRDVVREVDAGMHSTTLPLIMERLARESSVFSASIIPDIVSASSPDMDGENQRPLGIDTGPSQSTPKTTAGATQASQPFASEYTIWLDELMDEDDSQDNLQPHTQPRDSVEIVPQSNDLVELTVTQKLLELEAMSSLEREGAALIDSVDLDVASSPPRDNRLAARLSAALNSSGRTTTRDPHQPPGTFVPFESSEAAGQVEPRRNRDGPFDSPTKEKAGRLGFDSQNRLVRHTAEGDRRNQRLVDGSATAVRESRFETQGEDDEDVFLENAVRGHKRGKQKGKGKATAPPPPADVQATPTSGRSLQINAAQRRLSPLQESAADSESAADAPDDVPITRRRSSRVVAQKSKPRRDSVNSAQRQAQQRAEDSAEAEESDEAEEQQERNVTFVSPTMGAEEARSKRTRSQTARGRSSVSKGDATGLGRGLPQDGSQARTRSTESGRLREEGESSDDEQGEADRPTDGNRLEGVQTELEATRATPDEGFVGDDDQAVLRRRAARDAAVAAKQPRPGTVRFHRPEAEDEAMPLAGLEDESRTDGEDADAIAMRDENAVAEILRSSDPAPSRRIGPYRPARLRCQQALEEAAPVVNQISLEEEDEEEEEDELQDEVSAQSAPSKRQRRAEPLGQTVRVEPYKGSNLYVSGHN

Question: Which results are given for “TTAGTCAGGGTTAGTCAGGGTTAGT (double strand) [YlTEL]”?
Answer: binding result ([1]; slightly less active than TTAGGG4): binds more weakly; binding result [2]: binds

Question: What does the source list for “GGTTAGGGTTAG (double strand) [TTAGGG2 ds]”?
Answer: binding result [3]: no binding; binding result [4]: no binding

Question: Which results are given for “TTAGGGTTAGGGTTAGGGTTAG (double strand) [TTAGGG3.5 ds]”?
Answer: binding result [3]: binds; binding result [4]: binds

Question: Does “TGGGGTCTGGGTGCTG (double strand) [CgTEL]” bind ([2]; "just like Tay1")?
Answer: no binding

Question: What does the source list for “TTAGGGTTAGGGTTAG (double strand) [TTAGGG2.5 ds]”?
Answer: binding result [3]: binds more weakly; binding result [4]: binds more weakly

Question: What does the source list for “TTAGGGTTAGGGTTAGGGTTAGGG (double strand) [TTAGGG4 ds]”?
Answer: binding result [5]: binds more weakly; binding result [6]: no binding; binding result ([1]; label: 32P (as probe)): binds; binding result ([2]; label: 32P (as probe)): binds
